Entries after “also recorded” stand apart in the source; their conditions may differ. At least one peptide structure holds a part that was inferred or is arguable (an end, a ring closure or a residue). No end group written: not given here.
Tests used:
[1] = tested on: A. actinomycetemcomitans JP2; assay: Biofilm formation on polypropylene microtiter plates, Coomassie blue; format: cell-based, Aggregatibacter (Actinobacillus) actinomycetemcomitans; settings: 48 h, reduced oxygen
[2] = tested on: P. aeruginosa PAO1 on MDCK cell monolayers; assay: Epithelial invasion assay, MDCK monolayer penetration; format: cell-based, Pseudomonas aeruginosa; settings: 24 h
Protocol: FIG. 10. MDCK monolayer penetration: MDCK cells were cultured on filter supports and infected on the apical side with 10^6 CFU/ml of P. aeruginosa PAO1 (PAO1) or bacteria mixed with PSP peptides, as indicated. Control MDCK cells were incubated with buffer alone (HOAc). After 24 h incubation at 37° C., the OD 600 nm was determined for the media in the basolateral compartment to detect bacterial penetration of the MDCK cell monolayer.
To determine if PSP peptides prevent the penetration of epithelial cell monolayers, the epithelial cell line MDCK was cultured on permeable membrane filters. P. aeruginosa were added to the apical medium of confluent MDCK cell monolayers and bacterial penetration was determined as the number of bacteria recovered from the basolateral medium after a 24 h incubation.

[3] = tested on: C. elegans; assay: Cyanide poisoning (fast-kill) of C. elegans by P. aeruginosa; format: in vivo; settings: 3 h
[4] = tested on: P. aeruginosa; assay: Production of pyocyanin in P. aeruginosa; format: cell-based, Pseudomonas aeruginosa
[5] = tested on: RAW 264.7 macrophage cells; assay: LPS-induced TNFα secretion (ELISA); format: cell-based, mouse; settings: P. aeruginosa LPS
Protocol: FIGS. 15A and 15B. FIG. 15A. Inhibition of endotoxin-stimulated TNFα secretion. RAW 264.7 macrophage cells were stimulated with 100 ng/ml LPS in the presence or absence of the PSP-derived peptides GK7, KL11 or GL13 (200 μg/ml). Polymyxin B (PMX) was used as a positive control. Further controls consisted of peptides alone without LPS stimulation. TNFα secretion was analyzed by ELISA of the RAW culture medium. The data are from triplicate RAW culture dishes for each condition. *) different from LPS alone P<0.03, **) P<0.0002. FIG. 15B. Dose response curve for the inhibition of LPS-induced TNFα secretion by GL-13.
In the present experiments, the redesigned PSP peptides (GL13, KL11) were tested for their effect on TNFα secretion and compared to GK7.

[6] = tested on: C57BL/6 mice; assay: LPS sepsis model, D-galactosamine sensitized mice; format: in vivo; settings: 100 ng/mouse LPS preincubated with 100 μg/mouse peptide; after 12 hours
Protocol: FIG. 18. GL-13 Protects Mice in an LPS Sepsis Model. C57BL/6 mice were sensitized with D-galactosamine and injected with 100 ng/mouse (50 μg/kg) of P. aeruginosa LPS that had been preincubated for 1 h RT with or without 100 μg/mouse of GL-13. Controls received LPS and 0.9% saline. […] The results are from two independent experiments.
C57BL/6 mice were sensitized with D-galactosamine and injected with 100 ng/mouse (50 μg/kg) of P. aeruginosa LPS that had been preincubated for 1 h RT with or without 100 μg/mouse of GL-13 (FIG. 18). Controls received LPS and 0.9% saline. […] The results are from two independent experiments.

[7] = tested on: PSP binding to LPS; assay: Binding of saliva PSP to LPS-Sepharose in presence of peptides (immunoblot); parameters: species or system human

Substance: GQIINLKASLDLL-NH2 [GL13-NH2, GQIINLKASLDLL-(CONH2)]
- A. actinomycetemcomitans biofilm formation [1]: inhibited
- penetration / invasion of MDCK cell monolayers by P. aeruginosa [2]: appears to block the invasion; also recorded: could inhibit the penetration
- cyanide-mediated fast-killing of C. elegans [3]: did not inhibit cyanide-mediated fast-killing
- production of pyocyanin [4]: did not inhibit
- inhibition of LPS-induced TNFα secretion [5]: about 90%
- survival in LPS sepsis model [6]: protects mice from LPS-induced sepsis; also recorded: significantly different from the LPS group
- binding of PSP to LPS in presence of peptide [7]: inhibits binding of PSP to LPS
